The results in this text go back to patent publication US12479856B2, “Pharmaceutical compounds for the treatment of complement mediated disorders” (Achillion Pharmaceuticals, Inc., priority 2019, dated 2025).

Protein sequences, listed by entry. Tags and fused reporters are not part of them. Residues count along the entry.
UniProt P09871, 438-688 limits assumed: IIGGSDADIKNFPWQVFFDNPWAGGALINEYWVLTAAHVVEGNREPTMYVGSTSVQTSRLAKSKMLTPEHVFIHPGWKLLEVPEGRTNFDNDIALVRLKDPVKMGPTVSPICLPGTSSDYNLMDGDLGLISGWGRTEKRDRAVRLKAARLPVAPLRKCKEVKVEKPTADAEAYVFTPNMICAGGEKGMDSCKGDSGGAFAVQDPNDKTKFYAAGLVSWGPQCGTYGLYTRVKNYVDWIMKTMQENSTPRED
UniProt P09871, 16-437 partner limits assumed: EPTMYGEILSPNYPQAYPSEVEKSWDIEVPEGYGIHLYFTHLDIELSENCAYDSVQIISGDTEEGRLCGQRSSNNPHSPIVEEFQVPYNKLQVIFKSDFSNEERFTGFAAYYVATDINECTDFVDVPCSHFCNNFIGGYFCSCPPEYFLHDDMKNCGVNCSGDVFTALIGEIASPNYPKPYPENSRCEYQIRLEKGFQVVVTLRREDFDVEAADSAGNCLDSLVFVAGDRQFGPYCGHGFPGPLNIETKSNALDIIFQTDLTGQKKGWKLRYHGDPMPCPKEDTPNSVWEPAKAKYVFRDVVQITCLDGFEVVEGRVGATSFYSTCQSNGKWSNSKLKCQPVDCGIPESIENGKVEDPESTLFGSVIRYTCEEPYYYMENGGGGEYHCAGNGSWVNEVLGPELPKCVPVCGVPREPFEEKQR

The test addresses Human complement C1s enzyme (Homo sapiens, UniProt P09871). In words: Human C1s Enzyme Assay. The following applies: read-out: C1s Protease Activity; Table 3; C1s purified from human serum, 1.16 nM; substrate Z-L-Lys-SBzl. The protocol:
Example 4. Human C1s Enzyme Assay
Human complement C1s enzyme (purified from human serum, Complement Technology, Inc.) at 1.16 nM final concentration is incubated with test compound at various concentrations for 5 min at room temperature in 50 mM Tris, 1 M NaCl, pH 7.5. A synthetic substrate Z-L-Lys-SBzl and DTNB (Ellman's reagent) are added to final concentrations of 100 μM each. Absorbance at 405 nm (A405) is recorded at 30 second intervals for 30 min using a microplate spectrophotometer. IC50 values are calculated by nonlinear regression of complement C1s reaction rates as a function of test compound concentration.

Structures are written as SMILES. The match of structure and compound is tentative.

As for `N=C(N)c1csc(CNC(=O)[C@@H]2[C@@H]3CC[C@@H](C3)N2C(=O)CNC(=O)c2ccc(Oc3ccccc3)cc2)c1`, the IC50 is less than 100 nM.
